# Results from one PubChem assay

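Malaria parasite (P. falciparum) lines kept in red blood cells; parasite DNA is measured by SYBR Green fluorescence after lysis, 72 h after compound addition.
Each compound was titrated across a series from about 0.000037 to 29 µM.
The number is the fitted AC50, the concentration giving a half-maximal change in signal; a lower value means higher potency, whether the curve shows a decrease or an increase.
Calls follow the curve class and fit quality: every row here is inconclusive, covering signal-raising curves and weak, poorly fitted, partial or highest-dose-only inhibition curves.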

Values are in µM.
Every entry below has the call inconclusive.
Only part of the assay is shown, chiefly results filed as inconclusive.
A potency from a partial, single-point or poor curve is only a rough figure.

structure | tested on / at | Potency (µM) | curve
CC[C@H](NC(C)C)[C@H](O)c1ccc(O)c(O)c1 | CP260 | 10 | inhibitor, single point
CC[C@H](NC(C)C)[C@H](O)c1ccc(O)c(O)c1 | CP250 | 17.78 | inhibitor, single point
CC[C@H](NC(C)C)[C@H](O)c1ccc(O)c(O)c1 | GB4 | 19.01 | inhibitor, single point
CC[C@H](NC(C)C)[C@H](O)c1ccc(O)c(O)c1 | 7G8 | 8.912 | inhibitor, partial curve
CC[C@H](NC(C)C)[C@H](O)c1ccc(O)c(O)c1 | DIV14 | 12 | inhibitor, single point
CC[C@H](NC(C)C)[C@H](O)c1ccc(O)c(O)c1 | 3D7 | 7.943 | inhibitor, partial curve
CCN(CC)C(=O)/C(Cl)=C(\C)OP(=O)(OC)OC | CP203 | 19.01 | inhibitor, single point
C=C1CCC(O)C/C1=C/C=C1\CCC[C@]2(C)[C@@H]([C@H](C)/C=C/[C@H](C)C(C)C)CC[C@@H]12 (some centres not stated) | CP252 | 17.78 | inhibitor, single point
C=C1CCC(O)C/C1=C/C=C1\CCC[C@]2(C)[C@@H]([C@H](C)/C=C/[C@H](C)C(C)C)CC[C@@H]12 (some centres not stated) | P94_40 | 15.85 | inhibitor, single point
C=C1CCC(O)C/C1=C/C=C1\CCC[C@]2(C)[C@@H]([C@H](C)/C=C/[C@H](C)C(C)C)CC[C@@H]12 (some centres not stated) | P93_24 | 12.59 | inhibitor, single point
C=C1CCC(O)C/C1=C/C=C1\CCC[C@]2(C)[C@@H]([C@H](C)/C=C/[C@H](C)C(C)C)CC[C@@H]12 (some centres not stated) | C2A | 17.78 | inhibitor, single point
C=C1CCC(O)C/C1=C/C=C1\CCC[C@]2(C)[C@@H]([C@H](C)/C=C/[C@H](C)C(C)C)CC[C@@H]12 (some centres not stated) | ICS | 12.59 | inhibitor, single point
C=C1CCC(O)C/C1=C/C=C1\CCC[C@]2(C)[C@@H]([C@H](C)/C=C/[C@H](C)C(C)C)CC[C@@H]12 (some centres not stated) | TAB113 | 17.78 | inhibitor, single point
C=C1CCC(O)C/C1=C/C=C1\CCC[C@]2(C)[C@@H]([C@H](C)/C=C/[C@H](C)C(C)C)CC[C@@H]12 (some centres not stated) | PC15 | 11.22 | inhibitor, single point
C=C1CCC(O)C/C1=C/C=C1\CCC[C@]2(C)[C@@H]([C@H](C)/C=C/[C@H](C)C(C)C)CC[C@@H]12 (some centres not stated) | CP185 | 17.78 | inhibitor, single point
C=C1CCC(O)C/C1=C/C=C1\CCC[C@]2(C)[C@@H]([C@H](C)/C=C/[C@H](C)C(C)C)CC[C@@H]12 (some centres not stated) | CP265 | 11.22 | inhibitor, single point
C=C1CCC(O)C/C1=C/C=C1\CCC[C@]2(C)[C@@H]([C@H](C)/C=C/[C@H](C)C(C)C)CC[C@@H]12 (some centres not stated) | ATS95 | 12.59 | inhibitor, single point
C=C1CCC(O)C/C1=C/C=C1\CCC[C@]2(C)[C@@H]([C@H](C)/C=C/[C@H](C)C(C)C)CC[C@@H]12 (some centres not stated) | TAB165 | 17.78 | inhibitor, single point
C=C1CCC(O)C/C1=C/C=C1\CCC[C@]2(C)[C@@H]([C@H](C)/C=C/[C@H](C)C(C)C)CC[C@@H]12 (some centres not stated) | CP247 | 12.59 | inhibitor, single point
C=C1CCC(O)C/C1=C/C=C1\CCC[C@]2(C)[C@@H]([C@H](C)/C=C/[C@H](C)C(C)C)CC[C@@H]12 (some centres not stated) | GB4 | 16.94 | inhibitor, partial curve, poor fit
C=C1CCC(O)C/C1=C/C=C1\CCC[C@]2(C)[C@@H]([C@H](C)/C=C/[C@H](C)C(C)C)CC[C@@H]12 (some centres not stated) | PAD | 14.13 | inhibitor, single point
C=C1CCC(O)C/C1=C/C=C1\CCC[C@]2(C)[C@@H]([C@H](C)/C=C/[C@H](C)C(C)C)CC[C@@H]12 (some centres not stated) | DFO2036 | 17.78 | inhibitor, single point
C=C1CCC(O)C/C1=C/C=C1\CCC[C@]2(C)[C@@H]([C@H](C)/C=C/[C@H](C)C(C)C)CC[C@@H]12 (some centres not stated) | ECU | 17.78 | inhibitor, single point
C=C1CCC(O)C/C1=C/C=C1\CCC[C@]2(C)[C@@H]([C@H](C)/C=C/[C@H](C)C(C)C)CC[C@@H]12 (some centres not stated) | CP191 | 12.59 | inhibitor, single point
C=C1CCC(O)C/C1=C/C=C1\CCC[C@]2(C)[C@@H]([C@H](C)/C=C/[C@H](C)C(C)C)CC[C@@H]12 (some centres not stated) | TAB109 | 17.78 | inhibitor, single point
C=C1CCC(O)C/C1=C/C=C1\CCC[C@]2(C)[C@@H]([C@H](C)/C=C/[C@H](C)C(C)C)CC[C@@H]12 (some centres not stated) | SC27B | 12.59 | inhibitor, single point
C=C1CCC(O)C/C1=C/C=C1\CCC[C@]2(C)[C@@H]([C@H](C)/C=C/[C@H](C)C(C)C)CC[C@@H]12 (some centres not stated) | AS120 | 12.59 | inhibitor, single point
C=C1CCC(O)C/C1=C/C=C1\CCC[C@]2(C)[C@@H]([C@H](C)/C=C/[C@H](C)C(C)C)CC[C@@H]12 (some centres not stated) | W2 | 12 | inhibitor, single point
C=C1CCC(O)C/C1=C/C=C1\CCC[C@]2(C)[C@@H]([C@H](C)/C=C/[C@H](C)C(C)C)CC[C@@H]12 (some centres not stated) | HB3 | 11.22 | inhibitor, single point
C=C1CCC(O)C/C1=C/C=C1\CCC[C@]2(C)[C@@H]([C@H](C)/C=C/[C@H](C)C(C)C)CC[C@@H]12 (some centres not stated) | CP250 | 14.13 | inhibitor, single point
C=C1CCC(O)C/C1=C/C=C1\CCC[C@]2(C)[C@@H]([C@H](C)/C=C/[C@H](C)C(C)C)CC[C@@H]12 (some centres not stated) | ATS189 | 10 | inhibitor, single point
C=C1CCC(O)C/C1=C/C=C1\CCC[C@]2(C)[C@@H]([C@H](C)/C=C/[C@H](C)C(C)C)CC[C@@H]12 (some centres not stated) | CP256 | 17.78 | inhibitor, single point
C=C1CCC(O)C/C1=C/C=C1\CCC[C@]2(C)[C@@H]([C@H](C)/C=C/[C@H](C)C(C)C)CC[C@@H]12 (some centres not stated) | CP217 | 11.22 | inhibitor, single point
C=C1CCC(O)C/C1=C/C=C1\CCC[C@]2(C)[C@@H]([C@H](C)/C=C/[C@H](C)C(C)C)CC[C@@H]12 (some centres not stated) | Dd2 | 11.22 | inhibitor, single point
C=C1CCC(O)C/C1=C/C=C1\CCC[C@]2(C)[C@@H]([C@H](C)/C=C/[C@H](C)C(C)C)CC[C@@H]12 (some centres not stated) | PC49 | 0.0112 | inhibitor, full curve, poor fit
C=C1CCC(O)C/C1=C/C=C1\CCC[C@]2(C)[C@@H]([C@H](C)/C=C/[C@H](C)C(C)C)CC[C@@H]12 (some centres not stated) | N140 | 17.78 | inhibitor, single point
COC1C=CO[C@@]2(C)Oc3c(C)c(O)c4c(O)c(c5c(nc6cc(C)ccn65)c4c3C2=O)NC(=O)/C(C)=C\C=CC(C)C(O)[C@@H](C)C(O)C(C)[C@@H](OC(C)=O)C1C (some centres not stated) | FAB9 | 14.13 | inhibitor, single point
COC1C=CO[C@@]2(C)Oc3c(C)c(O)c4c(O)c(c5c(nc6cc(C)ccn65)c4c3C2=O)NC(=O)/C(C)=C\C=CC(C)C(O)[C@@H](C)C(O)C(C)[C@@H](OC(C)=O)C1C (some centres not stated) | CP256 | 10 | inhibitor, single point
COC1C=CO[C@@]2(C)Oc3c(C)c(O)c4c(O)c(c5c(nc6cc(C)ccn65)c4c3C2=O)NC(=O)/C(C)=C\C=CC(C)C(O)[C@@H](C)C(O)C(C)[C@@H](OC(C)=O)C1C (some centres not stated) | JCK | 15.85 | inhibitor, single point

For reference, 4 entries once more:

{"structure": "C=C1CCC(O)C/C1=C/C=C1\\CCC[C@]2(C)[C@@H]([C@H](C)/C=C/[C@H](C)C(C)C)CC[C@@H]12", "stereo": "some centres not stated", "tested on / at": "ATS95", "Potency (µM)": "12.59", "curve": "inhibitor, single point"}
{"structure": "C=C1CCC(O)C/C1=C/C=C1\\CCC[C@]2(C)[C@@H]([C@H](C)/C=C/[C@H](C)C(C)C)CC[C@@H]12", "stereo": "some centres not stated", "tested on / at": "TAB113", "Potency (µM)": "17.78", "curve": "inhibitor, single point"}
{"structure": "CC[C@H](NC(C)C)[C@H](O)c1ccc(O)c(O)c1", "tested on / at": "7G8", "Potency (µM)": "8.912", "curve": "inhibitor, partial curve"}
{"structure": "C=C1CCC(O)C/C1=C/C=C1\\CCC[C@]2(C)[C@@H]([C@H](C)/C=C/[C@H](C)C(C)C)CC[C@@H]12", "stereo": "some centres not stated", "tested on / at": "DFO2036", "Potency (µM)": "17.78", "curve": "inhibitor, single point"}

Source: PubChem BioAssay AID504749 (NCATS, 2011).